Data reported in publication PMC1187922.
No constants are given. Whether binding was seen depends on the method and setting. Some entries that bind do so weakly or less than the wild type.

Chains of the proteins cited; added tags and fusions are not shown. Lines headed by an entry give the natural chain unless they say otherwise; changes in a name come on top.
UniProt P04608: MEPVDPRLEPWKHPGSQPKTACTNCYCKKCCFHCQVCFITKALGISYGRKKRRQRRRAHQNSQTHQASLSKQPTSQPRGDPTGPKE
UniProt P50750: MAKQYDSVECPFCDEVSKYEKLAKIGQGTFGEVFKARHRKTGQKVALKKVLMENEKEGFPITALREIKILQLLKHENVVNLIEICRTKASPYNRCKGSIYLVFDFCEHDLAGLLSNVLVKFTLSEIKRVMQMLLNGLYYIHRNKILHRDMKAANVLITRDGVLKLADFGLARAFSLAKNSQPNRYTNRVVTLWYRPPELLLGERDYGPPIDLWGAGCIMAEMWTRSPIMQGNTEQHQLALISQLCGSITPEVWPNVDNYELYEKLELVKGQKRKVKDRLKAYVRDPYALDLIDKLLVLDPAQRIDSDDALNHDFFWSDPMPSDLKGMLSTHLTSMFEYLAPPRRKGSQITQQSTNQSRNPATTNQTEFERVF

Biological target: Recombinant HIV-1 Tat protein (HIV-1) (UniProt P04608)
Test: pull-down; both purified

Substance | binding
Human recombinant P-TEFb (CDK9/cyclin T1), untreated (from UniProt P50750 1-372; O60563 1-726) (complex) | binds
Recombinant CDK9/cyclin T1 treated with PP1 (from UniProt P50750 1-372; O60563 1-726) (complex) | binds
